# Test results as given in article PMC9426557.
# Sequences of proteins named here, by UniProt entry; tags and fusion partners are left off. A change or cut given only in a name is not applied to a line headed by its entry.
# UniProt Q1K8X0: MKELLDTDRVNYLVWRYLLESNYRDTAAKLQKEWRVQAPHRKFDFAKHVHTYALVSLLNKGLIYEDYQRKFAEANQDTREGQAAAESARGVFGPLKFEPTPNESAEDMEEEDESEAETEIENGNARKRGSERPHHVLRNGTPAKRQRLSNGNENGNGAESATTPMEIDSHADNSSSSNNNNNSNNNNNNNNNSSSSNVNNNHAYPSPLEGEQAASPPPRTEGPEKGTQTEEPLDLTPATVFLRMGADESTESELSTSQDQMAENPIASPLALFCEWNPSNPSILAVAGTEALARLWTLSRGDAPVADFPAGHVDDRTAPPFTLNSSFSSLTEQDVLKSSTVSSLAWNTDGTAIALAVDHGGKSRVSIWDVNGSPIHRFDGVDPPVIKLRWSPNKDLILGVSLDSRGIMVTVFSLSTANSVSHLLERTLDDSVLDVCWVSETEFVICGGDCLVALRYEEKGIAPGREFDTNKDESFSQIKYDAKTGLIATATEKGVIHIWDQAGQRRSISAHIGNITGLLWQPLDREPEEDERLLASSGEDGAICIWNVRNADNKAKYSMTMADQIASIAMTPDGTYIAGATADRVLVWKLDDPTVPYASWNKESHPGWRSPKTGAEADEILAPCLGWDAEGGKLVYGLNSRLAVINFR
# Results are given in words; binding and its absence hold for the method and conditions named. In cells and extracts the contact can be indirect. Binding calls can cover weak binding; strength is not graded here. Where a sequence is shown, tags or fusion partners need not be part of it.
# Assays:
# [1] = target: SIF-2 (endogenous) (Neurospora crassa (endogenous in N. crassa mycelium)) (UniProt Q1K8X0); assay: co-IP; N. crassa WT-strain cell extracts with ectopic Myc-tagged protein, precipitated with anti-HDA-2 or anti-SIF-2 antibody, protein G-Sepharose; eluates blotted with anti-Myc and anti-HDA-2 or anti-SIF-2
# [2] = target: Myc-SIF-2 (Neurospora crassa); assay: co-IP; N. crassa cell extracts (4 mg/mL) incubated with monoclonal anti-c-Myc antibody 4 h at 4°C, protein G-Sepharose; eluates blotted with anti-SIF-2 or anti-HDA-2 and anti-Myc
# [3] = target: Myc-SNT-1 (Neurospora crassa); assay: as above
binding [1],binding [2],binding [3],Binder
binds,–,–,"Myc-SET-4 (protein, UniProt Q7RZ84 1-948) MTDKLPSLLTPIAPPSRTSFSVSAAVPVQDGIRAQENVEEEPYTIRCICKYPDDDGNTIYCELCDTWQHIECYYPNNSEDALRDPDFAHFCVECQPRPLDRERAKENQRRKLTTGVTEGMADKKSKRPISKSHKKKPKPSDLPLTGQHSKAEKQASIQDSHPPTKKSKSSHKSSHSVSSQAAKRSPQFGSTKSNHAHPPSPAATPPDLPADFEIHTYAPALLSGSSDRGVEIVHTNSFASLQVSNAISAWLRDHNKLQKETGWAYADIFQPLPPNIDQLKRPVDIELSRKTLGQGTVASWKCLKAPSAIAHNVPLVELNGQIGIQSSYCADPDSRWQELTSPLPYVFFHPMLPIYIDTRKEGSQARYIRRSCKPNAMLETYLSDGYELHFWLVTDRQVAAREEITLPWDFRFPNENKSRMLRVLGLSDEDTSAHAESSVDDGEYQALTSWLHNILSEYGGCACNLGSECAFARFHRNHLGKSQAPANPPKTKKRKSKTQSSSTIGTGPATDSRAASEGHLEDAPENDRRSVSGSARSKPPSRDLTPTARQGSFDTLGILTEPTDRDKRKVSMIEETFRRIELQQQPTKKRKARGSDAATTSKKGSKSSATTQTTNATNGPDERHCHFANGETAITSKATSPAASAKSGRVTKSKKTSSRKGSVAVVSHPVPAQPVRLPSRPKYADAGTQTNPDTEANPAPSPARPKRRLVSVTMRIMQHHRWLKEQQGKQRLLNQAVATVPMDVDSPKDNKAVVSVAGSVQDTTLKPSAPSKVTTSDVEMPDAPTVSASHLKAAQSTSVVTAPKSKVLDLRVPMPPVPPFPSSTSLALTSTTSLPAGTSAAQSSFSVTGLPSPLGPSSINGLTANPSPIKKKLSLSDYTKSRMNKAAAARPSVSVPSLKPNAALDEPKLTTSDDNGGAASGSPTTEKVTDTTGSTTAALALTTASSSV"
–,binds,binds,"HDA-2 (histone deacetylase 2, endogenous) (enzyme, UniProt Q7SEL7 1-499) MDTLQSLQWRPPKPNYLPHDIDVDEPIVDVYKPPIPMDKASDRENQEYYAHMKRMAHEYNITRPKGYTVSYHFNPDMEPHHFGLTHPMKPFRLTLTKSLVTAYGMNFAMDNYNTRIATYEELNSFHTSDYLDYLHMAPPEEMPRDIDNPDKEVKFNLGGSDCPLFHGLYDYCSMSAGSSLDAARKICNKQSDIAIAWGGGLHHAKKSEASGFCYINDIVIAILQLLRCYPRVLYIDIDVHHGDGVEEAFHSTDRVLTCSFHKFAPEVFFPGTGGLDDNGPKSEHNPGAHHAINVPLNDGITDEQYGHLFQSVIGKINEKFRPSVIALQCGADSLAGDRLGRFNLQVQGHGACAKFCKTFGIPMIMFGGGGYTPRNVARAWAYETSVAIDVDEKINKIIPDHTPWRKHFVQEELFPSLEQILGEPRANRNSQKRLQEIIQHVHEQLRFVNAAPSVQQQVIPPDLGGIRDDVEDRLKEESEERDEGLRRDREEGLGISGEF"
binds,–,–,"Myc-CPR-1 (protein, UniProt Q7S7Z6 28-285) AKGPKITHKVYFDIEQGDKPLGRIVMGLYGKTVPKTAENFRALATGEKGFGYEGSTFHRVIKQFMIQGGDFTKGDGTGGKSIYGDKFPDENFKLKHSKKGLLSMANAGKDTNGSQFFITTVITSWLDGKHVVFGEVLEGYDVVEKIENTKTGPRDAPAEPIKIAKSGELEVPPEGLEGQSEWASPAYANEDEKPAAPVPVTDAKPPAHDSIPAATADDDDTGAPLFAKVLFFGVLVLGLVLYIRLRRAPKGTYGKGME"
